According to patent US20180230218A1:

B1: hucMet27v1.2 (antibody, human IgG1, kappa, V domains shown)
VH: EVQLVESGGGLVQPGGSLRLSCAASGFTFSSYDMSWVRQTPGKGLELVATINSNGVSIYYPDSVKGRFTISRDIAKNTLYLQMSSLRAEDTAMYYCAREEITTEMDYWGQGTSVTVSS
VL: DIVLTQSPASLAVSPGQRATISCRASESVDSYGNSFIHWYQQKPGQPPKLLIYRASNLESGIPARFSGSGSRTDFTLTINPVEANDVATYYCQQSNEEPLTFGGGTKLELKR
B2: hucMet27Gv1.2 (antibody, human IgG1, kappa, V domains shown)
VH: B1 VH with T40A, T78S, S84N, M93V, S113L
VL: EIVLTQSPATLSLSPGERATLSCRASESVDSYGNSFIHWYQQKPGQAPRLLIYRASNLESGIPARFSGSGSGTDFTLTISSLEPEDFAVYYCQQSNEEPLTFGQGTKVELKR
B3: hucMet22Gv2.2 (antibody, V domains shown)
VH: QVQLVQSGAEVKKPGASVKVSCKASGYTFTDYNMDWVRQAPGQRLEWIGDLNPNNGATIYNQKFKGRATLTVDMSASTAYMELSSLRSEDTAVYYCARGNYYGNYYYLMDYWGQGTSVTVSS
VL: DIQMTQSPSSLSASVGDRVTITCRASENIYSTLAWYQQKPGKAPKLLVYAATNLADGVPSRFSGSGSGTDYTLTISSLQPEDFATYYCQHFWGTPYTFGQGTKVEIKR

What follows are binders tested against Cyno cMet-ECD-his (cynomolgus monkey) (assay: BLI (ForteBio)).

binding, binds:
B1, B2, B3

Residue numbers refer to the chain shown, from its start. These are yes or no findings as the source states them, for the method shown. A result given as binding can be weak or reduced; the word gives no strength.
